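Whole-cell growth test on Mycobacterium tuberculosis, read after 4 days in a medium based on cholesterol and the lipid DPPC; the read-out is not stated. Tested at 50 µM. The record gives no direction; compounds that gave an IC50 in retests scored well above the rest, so higher reads as more growth inhibition. About 69,000 compounds were tested under these conditions; 0.54% (about 370) showed 50% or more at least once.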

The filed quantity is “Percent Effect” (%). How 0% and 100% were set is not recorded. Most values in the screen are low, and negative values occur. The compounds are a random part of those screened. Two or more numbers in one place are separate tests of the same structure; such repeats can differ widely.

| # | SMILES | Percent Effect |
|---|---|---|
| 1 | `O=C(NC1CC1)N1CCOCC2(CCN(Cc3cccs3)C2)C1.O=C(O)C(F)(F)F` (stereo not given) | -16.44 |
| 2 | `COCC(=O)N1CCC(c2nc3ccc(-c4ccncc4)cn3n2)CC1.O=C(O)C(F)(F)F` | -22.3 |
| 3 | `[H][C@@]12CCN(C(=O)C3CCCC3)[C@]1([H])C(=O)N(c1ccc(F)cc1)C(=O)N2` | 0.6533 |
| 4 | `CCCc1cc(NCCN2CCNC2=O)n2nccc2n1` | -1.404 |
| 5 | `Cc1ccc(CN(C)C(=O)CN2CCOC(Cn3cncn3)C2)o1` (stereo not given) | -3.515 |
| 6 | `COc1cc2c(cc1CNC(=O)Cc1ccc(C)nc1)OC(C)C2` (stereo not given) | 9.798 |
| 7 | `Cn1nc(CN2CCOCC2)c2c1CN(C(=O)c1ccc[nH]1)C2` | 10.85 |
| 8 | `Cc1cccc(-n2c(C)cc(C(=O)NS(C)(=O)=O)c2C)c1` | -4.669 |
| 9 | `CC(C)n1nc2c(cc1=O)CN(Cc1ccc(-n3cccn3)cc1)CC2` | 10.88 |
| 10 | `CCn1cc(NC(=O)NCC(C)N(C)C2CC2)cn1` (stereo not given) | -14.49 |
| 11 | `CNC(=O)CN1CCCC(Cc2ccccc2OC)C1` (stereo not given) | 2.142 |
| 12 | `COCCN1CCC2(CC1)CC(Nc1ccc(C)nn1)CO2.O=C(O)C(F)(F)F` (stereo not given) | 5.846 |
| 13 | `Cn1cc(N2CCC(NC(=O)c3ccccc3Cl)C2=O)cn1` (stereo not given) | -10.34 |
| 14 | `COC(=O)C(c1cc(F)ccc1F)N(C)C(=O)c1cnc(C)cn1` (stereo not given) | 10.78 |
| 15 | `CC(C(N)=O)n1nc(-c2cccs2)cc(N)c1=O` (stereo not given) | -4.419 |
| 16 | `O=C(CCn1cccn1)NS(=O)(=O)N1CCCc2ccccc21` | 1.833 |
| 17 | `CC(=O)NCC1CCC2(CCN(c3ncc(C(C)=O)c(C)n3)CC2)O1` (stereo not given) | -4.762 |
| 18 | `Cc1cc(NC(=O)CNCc2csc(-c3cnccn3)n2)ccc1Cl` | 28.74 |
| 19 | `COC(=O)NC1(C(=O)NCc2ccc(-c3ccn[nH]3)cc2)CCCC1` | 2.514 |
| 20 | `COCC1CN(C(=O)c2cccn2C)Cc2nccn2C1` (stereo not given) | -12.4 |
| 21 | `CCOc1cc(CNCc2cnc(C)cn2)c(Cl)cc1OC(C)C` | 1.807 |
| 22 | `COc1ccc(OC)c(C2CCN(c3ccc4cc[nH]c4n3)C2)c1` (stereo not given) | 19.9 and -8.374 |
| 23 | `CCc1noc(CN2CCN(C(=O)C3CC3)CC2)n1` | 8.949 |
| 24 | `Cc1nn(C)c(N2CCOCC2)c1CNC1CCOc2ccccc21` (stereo not given) | -9.328 |
| 25 | `CNC(=O)[C@@H](c1ccccc1OC)N1CCC[C@H]1C(=O)NC1CC1.Cl` | 5.162 |
| 26 | `CCNC(=O)[C@@H]1CCCN1C1(C(=O)NC)CCC1.Cl` | -3.987 |
| 27 | `Cc1csc(C(=O)N2CCC(O)(CN3CCc4ccccc4C3)C2)c1` (stereo not given) | -6.657 |
| 28 | `O=C(O)C(F)(F)F.[H][C@@]12CCN(c3ccc(C)nn3)[C@]1([H])CC[C@@H](C(=O)NCc1ccco1)O2` | -12.89 |
| 29 | `CN(Cc1ccccc1)C(=O)CN1CCCC(Cn2cncn2)C1` (stereo not given) | 5.079 |
| 30 | `Cc1nn(C)c2nc(C3CC3)c(Cl)c(C(=O)O)c12` | 1.694 |
| 31 | `CCc1ncc2c(n1)CN(C(C)C(=O)N1CCOCC1)CC2` (stereo not given) | -19 |
| 32 | `Cc1cc(Br)c(O)c(-c2nc(N3CCOCC3)sc2C)c1` | -8.489 |
| 33 | `CSCCNC(=O)c1ccc(OC2CCN(CC(C)(C)C)CC2)c(Cl)c1` | 2.784 |
| 34 | `O=C(O)C(F)(F)F.[H][C@@]12COC[C@@H](CC(=O)N3CCCC3)[C@]1([H])CN(Cc1ccc(F)cc1)C2` | 4.66 |
| 35 | `CCC(C)NC(=O)NCCCn1nc2ccccn2c1=O` (stereo not given) | 9.085 |
| 36 | `[H][C@]12CC[C@]([H])(CN(CCC(=O)NCc3ccco3)C1)N(CC=C(C)C)C2` | 2.084 |
| 37 | `Clc1ccc(CN(CCN2CCOCC2)Cc2cccnc2)c(Cl)c1` | -23.58 |
| 38 | `COc1cccc(F)c1CN1CCC(c2nc(C)cc(C)n2)C1` (stereo not given) | -29.51 and -9.368 |
| 39 | `Cc1ccc(OCCC(=O)N2CCCC(n3nc(C)nc3C)C2)cc1` (stereo not given) | 4.684 |
| 40 | `COc1ccc2c(c1)OCC(CNC(=O)c1cc(C(C)C)on1)C2` (stereo not given) | 15.93 |
| 41 | `CN(CC(=O)Nc1cccnc1)CC1CCCN1c1cccnn1` (stereo not given) | 6.919 |
| 42 | `COC(=O)C(C)(C)NC(=O)c1cnc(Cc2ccc(F)cc2)s1` | 2.146 and 1.493 |
| 43 | `CC(C)C[C@@H](N)C(=O)N(C)Cc1csc(C(C)C)n1` | -4.558 |
| 44 | `O=C(O)C(F)(F)F.O=C(O)C(F)(F)F.[H][C@]12C[C@@H](CN3CCCC3)N(C)[C@@]1([H])CCN(C(=O)c1cc(C)oc1C)C2` | -5.939 |
| 45 | `O=C(NCCCNc1cccnc1)c1ccc2nccn2c1` | -10.77 |
| 46 | `CCN(CC)c1ccc(C(=O)N(C)Cc2c(C)noc2C)cn1` | -20.49 |
| 47 | `O=C(C1CCN(c2snc3ccccc23)CC1)N1CCCCCC1` | -6.094 |
| 48 | `CCOCCn1c(=O)[nH]c2cc(C(=O)N(C)Cc3cnn(C)c3)ccc21` | -20.25 |
| 49 | `C[C@@H](N)C(=O)N1CC2(CCNCC2)c2cc(Cl)ccc21.Cl.Cl` | -7.061 and -1.631 |
| 50 | `Cc1cc(C)n(CC2CN(Cc3nc4ccccc4s3)CCO2)n1` (stereo not given) | 14.89 |
| 51 | `Cc1ccc(C(=O)N2CCSCC2)cc1NC(C)C` | -0.1176 |
| 52 | `CCN(CC)C(=O)CN1CCCC1c1nc(C)c2c(n1)N(C)C(=O)CC2` (stereo not given) | -3.926 and -8.41 |
| 53 | `Cc1ccc(C(N)c2cccc(S(C)(=O)=O)c2)cc1` (stereo not given) | 12.31 |
| 54 | `COc1ccc2nc(C[C@@H]3C[C@@H](C(C)C)[C@H](CN(C)C)C=C3C)[nH]c2n1` | 17.6 |
| 55 | `CC(=O)c1ccc(N2CCCC(CO)(CCOc3ccccc3)C2)nc1` (stereo not given) | -6.362 |
| 56 | `COc1ccccc1C(=O)NS(=O)(=O)c1cccc(C#N)c1` | -20.81 |
| 57 | `Cc1nnc(NC(=O)CN2CCCC2c2noc(C3CC3)n2)s1` (stereo not given) | -4.305 and 8.276 |
| 58 | `CCCOC1CCCN(C(=O)c2ccc(S(N)(=O)=O)cc2)C1` (stereo not given) | -2.351 |
| 59 | `CC(C)(NC(=O)C1CCCN(C2CCCC2)C1)c1nnc(N)s1` (stereo not given) | -14.89 and -6.013 |
| 60 | `Cc1cnc(CN2CCN(c3ccc4nncn4n3)C(C)C2)cn1` (stereo not given) | -3.974 |
| 61 | `Cc1nc(C2CCCN2C(=O)c2ccc(N(C)C)nn2)no1` (stereo not given) | -2.218 |
| 62 | `COc1ccc(OCCN2CCC(c3ccnn3CCO)CC2)cc1` | -18.26 |
| 63 | `COc1ccccc1CCNC(=O)CC1(Cn2cnnn2)CCCCC1` | 6.592 |
| 64 | `O=C(Nc1cc(-c2ccccn2)no1)C1CC1` | -19.25 |
| 65 | `Cc1noc(COCC(=O)Nc2cc(C)c(Br)cn2)n1` | -1.834 |
| 66 | `Cc1noc(CN(C)Cc2cnc(N3CCOCC3)nc2)n1` | 7.483 |
| 67 | `COc1nn(C)c2c1CCCN(S(=O)(=O)c1cccs1)C2` | 4.318 and -23.98 |
| 68 | `CS(=O)(=O)N1CCC(C(=O)NC(Cc2ccsc2)c2ccccn2)CC1` (stereo not given) | -17.21 |
| 69 | `CCC1CN(Cc2c(O)ccc3oc4c(c23)CCCC4)CCO1` (stereo not given) | -19.38 |
| 70 | `O=C(c1cc2c(Cl)cccc2[nH]1)N1CCN(CCc2ccccn2)CC1` | -0.08092 |
| 71 | `O=C(Cn1cccc2oc(=O)nc1-2)NCC1Cc2ccccc2O1` (stereo not given) | -5.407 |
| 72 | `CCc1csc(C2CCCN(C(=O)c3ccnc(N(C)C)c3)C2)n1` (stereo not given) | 4.822 |
| 73 | `Cc1nc(CN2CCCN(C(=O)COCC3CC3)CC2)cs1` | -10.24 |
| 74 | `Cc1cc2cc(C(=O)N[C@@H]3CC[C@@H](N4CCOCC4)[C@@H]3O)ccc2o1` | -6.122 |
| 75 | `O=C(O)C(F)(F)F.O=C1COC2(CCN(CC3CC3)CC2)CN1c1ccsc1` | 14.21 and 1.504 |
| 76 | `O=C(c1cnccn1)N1CCN(Cc2csc(-c3ccccc3)n2)CC1` | 7.699 |
| 77 | `CCC(C(=O)NCc1ccccn1)N(c1cccc(C)c1)S(C)(=O)=O` (stereo not given) | 5.319 and -2.068 |
| 78 | `CC1c2ncc(CNC(=O)C3CC3)n2CCN1Cc1cccnc1.O=C(O)C(F)(F)F.O=C(O)C(F)(F)F` (stereo not given) | -36.45 |
| 79 | `COc1ccc(F)c(-c2nccn2CCN2CCCC2)c1` | -3.934 |
| 80 | `COc1cccc(COCC(=O)NC(C(N)=O)c2ccccc2F)c1` (stereo not given) | -11.01 |
| 81 | `N#Cc1ccccc1C(=O)N1CCC2(CC(=O)NC2=O)C1` (stereo not given) | -26.74 |
| 82 | `COc1ccc2c(c1)OCC(CNC(=O)c1cnc(NC(C)C)nc1)C2` (stereo not given) | -23.53 |
| 83 | `NC(=O)CN1CCCN(C(=O)Cc2ccc3c(c2)OCO3)CC1` | -16.01 |
| 84 | `O=C(N[C@H]1CN(c2ccncc2)C[C@@H]1C1CC1)C1CCOCC1` | 15.07 |
| 85 | `Cc1nc(C)n(CC2CCCN2Cc2nnc(-c3ccco3)o2)n1` (stereo not given) | 11.46 and 8.292 |
| 86 | `O=S(=O)(CC1CC1)c1ncc(CN2CCSCC2)n1CC1CCCO1` (stereo not given) | -17.45 |
| 87 | `CCOc1ccc(N(C)S(=O)(=O)c2c[nH]c(C(C)C)n2)cc1` | -3.144 and -18.77 |
| 88 | `CC(C)CN1CC(c2nc(C3CC3)n[nH]2)CC1=O` (stereo not given) | 1.95 and 5.316 |

The first 7 entries again:

{"smiles": "O=C(NC1CC1)N1CCOCC2(CCN(Cc3cccs3)C2)C1.O=C(O)C(F)(F)F", "stereo": "stereo not given", "Percent Effect": -16.44}
{"smiles": "COCC(=O)N1CCC(c2nc3ccc(-c4ccncc4)cn3n2)CC1.O=C(O)C(F)(F)F", "Percent Effect": -22.3}
{"smiles": "[H][C@@]12CCN(C(=O)C3CCCC3)[C@]1([H])C(=O)N(c1ccc(F)cc1)C(=O)N2", "Percent Effect": 0.6533}
{"smiles": "CCCc1cc(NCCN2CCNC2=O)n2nccc2n1", "Percent Effect": -1.404}
{"smiles": "Cc1ccc(CN(C)C(=O)CN2CCOC(Cn3cncn3)C2)o1", "stereo": "stereo not given", "Percent Effect": -3.515}
{"smiles": "COc1cc2c(cc1CNC(=O)Cc1ccc(C)nc1)OC(C)C2", "stereo": "stereo not given", "Percent Effect": 9.798}
{"smiles": "Cn1nc(CN2CCOCC2)c2c1CN(C(=O)c1ccc[nH]1)C2", "Percent Effect": 10.85}

Data taken from ChEMBL document CHEMBL3988442, “University of Dundee, Small-Polar-MMV Screening Library” (2021).